The source of these data is patent US20050019826A1 (priority 2000, published 2005).

The chains behind the UniProt entries cited, without tags or fusion partners. Residues count along the entry.
UniProt P35968, residues 20-1356: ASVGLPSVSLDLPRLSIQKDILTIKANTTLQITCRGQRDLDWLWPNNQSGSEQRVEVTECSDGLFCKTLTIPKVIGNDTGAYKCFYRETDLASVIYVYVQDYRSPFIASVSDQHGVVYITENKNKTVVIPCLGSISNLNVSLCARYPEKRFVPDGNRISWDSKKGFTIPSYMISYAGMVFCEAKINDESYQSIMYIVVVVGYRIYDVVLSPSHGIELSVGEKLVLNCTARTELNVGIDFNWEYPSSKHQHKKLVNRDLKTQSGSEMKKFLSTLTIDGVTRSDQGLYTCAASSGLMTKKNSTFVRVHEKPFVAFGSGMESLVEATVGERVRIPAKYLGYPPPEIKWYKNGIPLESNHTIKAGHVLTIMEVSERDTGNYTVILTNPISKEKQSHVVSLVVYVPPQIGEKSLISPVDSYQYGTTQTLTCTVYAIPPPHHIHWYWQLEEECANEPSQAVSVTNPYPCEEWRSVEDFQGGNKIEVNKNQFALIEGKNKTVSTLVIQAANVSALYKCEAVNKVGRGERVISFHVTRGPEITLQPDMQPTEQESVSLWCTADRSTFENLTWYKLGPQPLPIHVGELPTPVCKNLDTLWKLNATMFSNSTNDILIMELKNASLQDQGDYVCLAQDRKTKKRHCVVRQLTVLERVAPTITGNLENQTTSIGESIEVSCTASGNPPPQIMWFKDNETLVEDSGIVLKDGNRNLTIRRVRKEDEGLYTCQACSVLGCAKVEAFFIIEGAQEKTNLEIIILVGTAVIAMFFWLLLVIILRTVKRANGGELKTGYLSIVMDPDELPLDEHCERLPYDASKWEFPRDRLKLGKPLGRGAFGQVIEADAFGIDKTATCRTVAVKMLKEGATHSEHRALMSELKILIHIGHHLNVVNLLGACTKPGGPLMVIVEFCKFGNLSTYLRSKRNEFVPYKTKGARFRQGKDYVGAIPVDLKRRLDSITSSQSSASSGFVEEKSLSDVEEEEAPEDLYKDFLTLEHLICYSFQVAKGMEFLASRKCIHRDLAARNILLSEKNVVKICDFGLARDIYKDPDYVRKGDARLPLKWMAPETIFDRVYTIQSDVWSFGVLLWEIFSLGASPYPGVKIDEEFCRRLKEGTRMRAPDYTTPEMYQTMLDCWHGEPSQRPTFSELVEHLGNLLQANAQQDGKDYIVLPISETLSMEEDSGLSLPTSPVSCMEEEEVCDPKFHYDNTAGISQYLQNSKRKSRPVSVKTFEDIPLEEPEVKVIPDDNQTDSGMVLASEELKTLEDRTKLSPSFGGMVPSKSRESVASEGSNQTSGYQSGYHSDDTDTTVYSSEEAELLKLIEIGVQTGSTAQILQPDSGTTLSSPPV

Results are given in words; binding and its absence hold for the method and conditions named. Some binding calls cover weakened binding; strength is not graded here.

Assay [1] addresses recombinant KDR expressed at the membrane surface of CHO-KDR cells (UniProt P35968). The experiment in a line: competition with 125I-VEGF on CHO-KDR cells, peptide at 2.1x10^-4 M.
For assay [2] the target is unchanged. The experiment in a line: competition with radioactive-labelled VEGF for binding to CHO-KDR cells (FIG. 5).
Assay [3] has the same target. The experiment in a line: 125I-VEGF165 displacement and Scatchard analysis on CHO-KDR cells with 50 µg/ml V1 (FIG. 15).

Take SLPAHAR [synthetic peptide K4 (SLPAHAR)]: the binding result in assay [1] is “binds”.
As for ATWLPPR [synthetic peptide V1 (ATWLPPR)], the binding entry in assay [1], in assay [2] and in assay [3] was “binds” in each case.
